PubChem BioAssay AID504793, Drosophila RNAi Screening Center – 2011

Aim: 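Knock-downs allowing continued mitosis even though DNA is damaged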 (primary screen)
Cells: Drosophila S2R+ cells
Reagent: long dsRNA against Drosophila genes, about 0.25 µg dsRNA per well
Time to read-out: 4 days of dsRNA, then 4 hours of drug before read-out
Conditions: doxorubicin 0.5 µM for 4 hours to cause double-strand breaks, in cells also given a low, harmless dose of dsRNA against nbs to sensitise the assay
Read-out: 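Per-well count of mitotic cells stained for phospho-histone H3 after doxorubicin exposure, used as mitotic index; counts are raw and not normalised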
Direction: mitotic cells: higher = more cells in mitosis, weaker G2 arrest
Rule for the call: 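Genes are called active only when high mitotic counts were reproduced with independent dsRNAs and mitosis was checked for delay without damage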
Calls: active = confirmed in follow-up tests; inactive = not confirmed
The screen tested about 23,000 reagents; this is an unselected part of those that have a named target and a result. In the full data, 62 (0.27%) are marked active. 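Calls come from follow-up tests whose scores are not deposited, so confirmed genes may have low counts here; counts are not normalised per plate.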 Raw values vary from plate to plate and are shown uncorrected. Names joined by + are all predicted targets of the reagent.

target gene,dsRNA,"mitotic cells, replicate 1",Call
Tom20 (GeneID 40189),DRSC10899,5,inactive
Nep2 (GeneID 40588),DRSC12126,4,inactive
Nep2 (GeneID 40588),DRSC21398,5,inactive
Acp53C14a (GeneID 36872),DRSC07224,7,inactive
CG7333 (GeneID 42334),DRSC16229,7,inactive
CG18139 (retired record) + Hmx,DRSC15307,7,inactive
CG4294 (GeneID 37579),DRSC04460,7,inactive
CG8117 (GeneID 32499),DRSC20082,10,inactive
CG8117 (GeneID 32499),DRSC27713,5,inactive
Ass (GeneID 40812),DRSC28238,6,inactive
CG12376 (GeneID 35857),DRSC06144,3,inactive
CG12376 (GeneID 35857),DRSC29464,3,inactive
CG31550 (GeneID 40661),DRSC12197,7,inactive
CG31550 (GeneID 40661),DRSC12198,6,inactive
CG31550 (GeneID 40661),DRSC29447,5,inactive
CG15390 (GeneID 33422),DRSC00404,6,inactive
Polr3C (GeneID 41542),DRSC14490,6,inactive
Polr3C (GeneID 41542),DRSC28198,3,inactive
Aasdh (GeneID 34175),DRSC03467,6,inactive
CG15124 (GeneID 37256),DRSC06546,6,inactive
Abd-B (GeneID 47763),DRSC14098,7,inactive
Abd-B (GeneID 47763),DRSC14337,6,inactive
Abd-B (GeneID 47763),DRSC28796,5,inactive
sr (GeneID 42162),DRSC13284,8,inactive
sr (GeneID 42162),DRSC25793,10,inactive
RpS16 (GeneID 37580),DRSC04442,3,inactive
RpS16 (GeneID 37580),DRSC29812,7,inactive
Charon (GeneID 33303),DRSC00679,6,inactive
CycA (GeneID 39340),DRSC09132,8,inactive
CycA (GeneID 39340),DRSC11123,7,inactive
ND6 (retired record) (GeneID 192479),DRSC21271,12,inactive
eIF2D (GeneID 64874),DRSC13916,7,inactive
Srp9 (GeneID 38883),DRSC10973,4,inactive
her (GeneID 34992),DRSC03543,7,inactive
Rab19 (GeneID 38930),DRSC11260,4,inactive
Rab19 (GeneID 38930),DRSC29485,3,inactive
Axud1 (GeneID 33419),DRSC00270,4,inactive
Prp38 (GeneID 35934),DRSC07060,4,inactive
Prp38 (GeneID 35934),DRSC28968,4,inactive
mio (GeneID 33399),DRSC00692,10,inactive
mio (GeneID 33399),DRSC22056,6,inactive
smp-30 (GeneID 41786),DRSC17059,4,inactive
smp-30 (GeneID 41786),DRSC26913,7,inactive
Jon74E (GeneID 39959),DRSC10617,14,inactive
Jon74E (GeneID 39959),DRSC23947,5,inactive
RpL10Ab (GeneID 39338),DRSC10798,11,inactive
RpL10Ab (GeneID 39338),DRSC26988,8,inactive
CG7991 (GeneID 38214),DRSC08609,3,inactive
CG7991 (GeneID 38214),DRSC29595,8,inactive
CG10337 (GeneID 35247),DRSC02038,5,inactive
CG30413 (GeneID 246601),DRSC04001,6,inactive
CG30413 (GeneID 246601),DRSC29520,13,inactive
Dhc62B (GeneID 38226),DRSC08655,8,inactive
CG9663 (GeneID 33541),DRSC00724,5,inactive
CG11247 (GeneID 40414),DRSC11643,11,inactive
CG11247 (GeneID 40414),DRSC21901,21,inactive
CG11247 (GeneID 40414),DRSC26558,10,inactive
Elba3 (GeneID 33670),DRSC00469,3,inactive
CG10887 (GeneID 42399),DRSC14277,14,inactive
CG10887 (GeneID 42399),DRSC27820,8,inactive
Gr5a (GeneID 44873),DRSC18085,11,inactive
CG7896 (GeneID 43552),DRSC16335,4,inactive
CG2861 (GeneID 31414),DRSC18229,8,inactive
CG15286 (GeneID 34834),DRSC23386,2,inactive
fz3 (GeneID 31023),DRSC18779,15,inactive
fz3 (GeneID 31023),DRSC29682,5,inactive
Rpn12 (GeneID 39845),DRSC11275,52,inactive
Rpn12 (GeneID 39845),DRSC28589,46,inactive
CG9609 (GeneID 32663),DRSC20199,3,inactive
CG9609 (GeneID 32663),DRSC26952,5,inactive
kin17 (GeneID 40242),DRSC11890,4,inactive
kin17 (GeneID 40242),DRSC26821,6,inactive
Not10 (GeneID 41552),DRSC14129,5,inactive
NKCC (GeneID 40663),DRSC12140,5,inactive
NKCC (GeneID 40663),DRSC12311,4,inactive
Vps39 (GeneID 42192),DRSC16205,10,inactive
CG6937 + btn,DRSC16917,15,inactive
CG44001 + CG33995,DRSC00853,7,inactive
CG44001 + CG33995,DRSC02898,5,inactive
key (GeneID 37967),DRSC04285,2,inactive
Achl (GeneID 36605),DRSC06665,11,inactive
Achl (GeneID 36605),DRSC29366,4,inactive
ndl (GeneID 38738),DRSC11374,6,inactive
ndl (GeneID 38738),DRSC26902,4,inactive
CG18210 (retired record) (GeneID 32469),DRSC19795,5,inactive
CG18210 (retired record) (GeneID 32469),DRSC25333,6,inactive
Pvf2 (GeneID 33994),DRSC00968,14,inactive
Pvf2 (GeneID 33994),DRSC02283,4,inactive
AttA (GeneID 36636),DRSC05926,5,inactive
AttA (GeneID 36636),DRSC27311,6,inactive
CG42366 (GeneID 34319),DRSC02760,3,inactive
CG42366 (GeneID 34319),DRSC23297,11,inactive
qsm (GeneID 47065),DRSC05896,9,inactive
qsm (GeneID 47065),DRSC06393,5,inactive
qsm (GeneID 47065),DRSC25212,8,inactive
CG31093 (GeneID 43116),DRSC15689,8,inactive
btz (GeneID 43331),DRSC14566,7,inactive
btz (GeneID 43331),DRSC23613,3,inactive
Mocs1 (GeneID 39238),DRSC11225,11,inactive
Arpc3A (GeneID 41917),DRSC15596,7,inactive
Arpc3A (GeneID 41917),DRSC27915,7,inactive
RpL7A (GeneID 31588),DRSC18709,14,inactive
RpL7A (GeneID 31588),DRSC28833,3,inactive
Hen1 (GeneID 36301),DRSC06139,8,inactive
Hen1 (GeneID 36301),DRSC06140,2,inactive
Hen1 (GeneID 36301),DRSC26993,4,inactive
Osi2 (GeneID 40756),DRSC12174,8,inactive
Osi2 (GeneID 40756),DRSC28374,4,inactive
CG17167 (GeneID 3354991),DRSC20902,3,inactive
CG17167 (GeneID 3354991),DRSC20903,7,inactive
Zip71B (GeneID 39626),DRSC09686,7,inactive
Zip71B (GeneID 39626),DRSC29491,7,inactive
Cyp4d1 (GeneID 31188),DRSC17694,17,inactive
Cyp4d1 (GeneID 31188),DRSC18456,17,inactive
Cyp4d1 (GeneID 31188),DRSC23948,4,inactive
mRpS14 (GeneID 117414),DRSC19444,5,inactive
TotM (GeneID 33764),DRSC02355,14,inactive
CG12115 (GeneID 31853),DRSC17811,13,inactive
CG5888 (GeneID 34980),DRSC01929,8,inactive
CG5888 (GeneID 34980),DRSC28190,7,inactive
CG15233 (GeneID 35556),DRSC04967,9,inactive
CG6073 (GeneID 43180),DRSC15962,15,inactive
CG6073 (GeneID 43180),DRSC22742,9,inactive
CG6073 (GeneID 43180),DRSC29018,6,inactive
Obp85a (GeneID 41006),DRSC14362,7,inactive
Rrp40 (GeneID 319033),DRSC00074,10,inactive
CG7560 (GeneID 39276),DRSC10879,6,inactive
Trxr2 (GeneID 40475),DRSC11900,4,inactive
Trxr2 (GeneID 40475),DRSC25519,6,inactive
SerRS-m (GeneID 41862),DRSC14096,6,inactive
Cks85A (GeneID 41034),DRSC16562,4,inactive
Cpr78E (GeneID 40408),DRSC11807,3,inactive
CG12713 (GeneID 39724),DRSC09900,6,inactive
CG12713 (GeneID 39724),DRSC24697,2,inactive
Adk3 (GeneID 44750),DRSC05917,6,inactive
Adk3 (GeneID 44750),DRSC28006,9,inactive
CG18179 (GeneID 39124),DRSC10303,4,inactive
CG18179 (GeneID 39124),DRSC25528,1,inactive
Spn85F (GeneID 41221),DRSC14545,6,inactive
MED30 (GeneID 38078),DRSC23135,7,inactive
MED30 (GeneID 38078),DRSC30026,12,inactive
